# Experimental data taken from US7858621B2 (Amorepacific Corporation, priority 2006, dated 2010).
# Amino acid sequences for entries named in this document (tags omitted).
# UniProt O35433, whole entry: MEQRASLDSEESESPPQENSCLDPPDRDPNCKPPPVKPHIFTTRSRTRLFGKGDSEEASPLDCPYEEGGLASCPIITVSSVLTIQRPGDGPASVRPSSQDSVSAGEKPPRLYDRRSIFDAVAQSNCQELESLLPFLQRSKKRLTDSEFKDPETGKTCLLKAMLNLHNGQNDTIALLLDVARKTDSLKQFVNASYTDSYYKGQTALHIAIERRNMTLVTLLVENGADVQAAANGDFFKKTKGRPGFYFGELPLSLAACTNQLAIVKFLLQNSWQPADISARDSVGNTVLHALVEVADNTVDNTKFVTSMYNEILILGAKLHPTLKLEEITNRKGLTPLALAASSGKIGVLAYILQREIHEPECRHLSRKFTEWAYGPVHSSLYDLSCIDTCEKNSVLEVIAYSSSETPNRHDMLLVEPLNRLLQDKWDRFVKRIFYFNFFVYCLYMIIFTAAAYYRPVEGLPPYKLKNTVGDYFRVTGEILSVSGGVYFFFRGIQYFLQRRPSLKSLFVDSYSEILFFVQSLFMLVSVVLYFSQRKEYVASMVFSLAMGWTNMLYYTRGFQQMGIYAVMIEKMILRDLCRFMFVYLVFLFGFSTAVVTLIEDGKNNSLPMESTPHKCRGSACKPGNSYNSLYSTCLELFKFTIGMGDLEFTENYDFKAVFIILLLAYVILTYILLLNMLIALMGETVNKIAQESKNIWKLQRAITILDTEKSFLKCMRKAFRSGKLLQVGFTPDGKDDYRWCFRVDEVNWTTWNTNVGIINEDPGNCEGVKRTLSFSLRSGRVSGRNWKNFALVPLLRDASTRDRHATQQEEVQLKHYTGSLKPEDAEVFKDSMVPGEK
# The match of structure and compound is tentative.
# Target: vanilloid receptor (Rattus norvegicus, UniProt O35433)
# Assay: 45Ca influx test in cultured neonatal rat DRG neurons, inhibition of capsaicin response
# Format: cell-based
# Settings: read-out: Antagonist Calcium Uptake Test (IC50), capsaicin 0.5 μM
compound,measurement,value
CN(C)c1nc(C(F)(F)F)ccc1/C=C/C(=O)NCc1cc(F)c(NS(C)(=O)=O)c(C#N)c1,IC50,1600 nM
